Some of the results follow.
Assays:
Experiment in all cases: glycan array binding signal (z-score within array); higher = stronger binding
Settings in all cases: glycan notation: IUPAC condensed, linker removed
Gal(b1-3)GalNAc(b1-3)Gal = molecular target: Gal(b1-3)GalNAc(b1-3)Gal
Outline: (§1)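 Glycan array binding is given as a within-array Z-score, which can be read as non-binding when negative. The arrays, 3228 of them, came from the Consortium for Functional Glycomics database and were retained only where the protein sequence was available. Z-scores were averaged across arrays of the same protein sequence at different concentrations or buffers and across linkers.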

[1] = molecular target: Gal(b1-3)GalNAc(b1-3)Gal(a1-4)Gal(b1-4)Glc
Outline: as §1

[2] = molecular target: Gal(b1-3)GalNAc(b1-4)Gal(b1-4)Glc
Outline: as §1

[3] = molecular target: Gal(b1-3)GalNAc(b1-4)[Neu5Ac(a2-3)]Gal(b1-4)Glc
Outline: as §1

Gal(b1-3)GlcNAc = molecular target: Gal(b1-3)GlcNAc
Outline: as §1

[4] = molecular target: Gal(b1-3)GlcNAc(a1-3)Gal(b1-4)GlcNAc
Outline: as §1

[5] = molecular target: Gal(b1-3)GlcNAc(a1-6)Gal(b1-4)GlcNAc
Outline: as §1

Gal(b1-3)GlcNAc(b1-2)Man = molecular target: Gal(b1-3)GlcNAc(b1-2)Man
Outline: as §1

[6] = molecular target: Gal(b1-3)GlcNAc(b1-2)Man(a1-3)[Gal(b1-3)GlcNAc(b1-2)Man(a1-6)]Man(b1-4)GlcNAc(b1-4)GlcNAc
Outline: as §1

[7] = molecular target: Gal(b1-3)GlcNAc(b1-2)Man(a1-3)[Gal(b1-3)GlcNAc(b1-2)Man(a1-6)]Man(b1-4)GlcNAc(b1-4)[Fuc(a1-6)]GlcNAc
Outline: as §1

[8] = molecular target: Gal(b1-3)GlcNAc(b1-2)Man(a1-3)[GlcNAc(b1-4)][Gal(b1-3)GlcNAc(b1-2)Man(a1-6)]Man(b1-4)GlcNAc(b1-4)GlcNAc
Outline: as §1

[9] = molecular target: Gal(b1-3)GlcNAc(b1-2)[Gal(b1-3)GlcNAc(b1-6)]Man(a1-6)[Gal(b1-3)GlcNAc(b1-2)Man(a1-3)]Man(b1-4)GlcNAc(b1-4)GlcNAc
Outline: as §1

[10] = molecular target: Gal(b1-3)GlcNAc(b1-3)Gal(b1-3)GlcNAc
Outline: as §1

[11] = molecular target: Gal(b1-3)GlcNAc(b1-3)Gal(b1-4)Glc
Outline: as §1

[12] = molecular target: Gal(b1-3)GlcNAc(b1-3)Gal(b1-4)GlcNAc
Outline: as §1

[13] = molecular target: Gal(b1-3)GlcNAc(b1-3)Gal(b1-4)GlcNAc(b1-2)Man(a1-3)[Gal(b1-3)GlcNAc(b1-3)Gal(b1-4)GlcNAc(b1-2)Man(a1-6)]Man(b1-4)GlcNAc(b1-4)GlcNAc
Outline: as §1

[14] = molecular target: Gal(b1-3)GlcNAc(b1-3)Gal(b1-4)GlcNAc(b1-2)[Gal(b1-3)GlcNAc(b1-3)Gal(b1-4)GlcNAc(b1-6)]Man(a1-6)[Gal(b1-3)GlcNAc(b1-3)Gal(b1-4)GlcNAc(b1-2)Man(a1-3)]Man(b1-4)GlcNAc(b1-4)[Fuc(a1-6)]GlcNAc
Outline: as §1

[15] = molecular target: Gal(b1-3)GlcNAc(b1-3)Gal(b1-4)GlcNAc(b1-3)Gal(b1-4)GlcNAc(b1-2)[Gal(b1-3)GlcNAc(b1-3)Gal(b1-4)GlcNAc(b1-3)Gal(b1-4)GlcNAc(b1-6)]Man(a1-6)[Gal(b1-3)GlcNAc(b1-3)Gal(b1-4)GlcNAc(b1-3)Gal(b1-4)GlcNAc(b1-2)Man(a1-3)]Man(b1-4)GlcNAc(b1-4)[Fuc(a1-6)]GlcNAc
Outline: as §1

[16] = molecular target: Gal(b1-3)GlcNAc(b1-3)Gal(b1-4)GlcNAc(b1-6)[Gal(b1-3)GlcNAc(b1-3)]Gal(b1-4)Glc
Outline: as §1

[17] = molecular target: Gal(b1-3)GlcNAc(b1-3)Gal(b1-4)[Fuc(a1-3)]GlcNAc
Outline: as §1

[18] = molecular target: Gal(b1-3)GlcNAc(b1-3)Gal(b1-4)[Fuc(a1-3)]GlcNAc(b1-6)[Gal(b1-3)GlcNAc(b1-3)]Gal(b1-4)Glc
Outline: as §1

[19] = molecular target: Gal(b1-3)GlcNAc(b1-3)GalNAc
Outline: as §1

[20] = molecular target: Gal(b1-3)GlcNAc(b1-6)Gal(b1-4)GlcNAc
Outline: as §1

[21] = molecular target: Gal(b1-3)GlcNAc(b1-6)GalNAc
Outline: as §1

[22] = molecular target: Gal(b1-3)GlcNAc(b1-6)[Gal(b1-3)]GalNAc
Outline: as §1

Gal(b1-3)GlcNAc6S = molecular target: Gal(b1-3)GlcNAc6S
Outline: as §1

[23] = molecular target: Gal(b1-3)[Fuc(a1-4)]GlcNAc
Outline: as §1

[24] = molecular target: Gal(b1-3)[Fuc(a1-4)]GlcNAc(b1-2)Man
Outline: as §1

[25] = molecular target: Gal(b1-3)[Fuc(a1-4)]GlcNAc(b1-2)Man(a1-3)[Gal(b1-3)[Fuc(a1-4)]GlcNAc(b1-2)Man(a1-6)]Man(b1-4)GlcNAc(b1-4)GlcNAc
Outline: as §1

[26] = molecular target: Gal(b1-3)[Fuc(a1-4)]GlcNAc(b1-2)Man(a1-3)[Gal(b1-3)[Fuc(a1-4)]GlcNAc(b1-2)Man(a1-6)]Man(b1-4)GlcNAc(b1-4)[Fuc(a1-6)]GlcNAc
Outline: as §1

[27] = molecular target: Gal(b1-3)[Fuc(a1-4)]GlcNAc(b1-3)Gal(b1-3)[Fuc(a1-4)]GlcNAc
Outline: as §1

[28] = molecular target: Gal(b1-3)[Fuc(a1-4)]GlcNAc(b1-3)Gal(b1-4)GlcNAc
Outline: as §1

[29] = molecular target: Gal(b1-3)[Fuc(a1-4)]GlcNAc(b1-3)Gal(b1-4)[Fuc(a1-3)]GlcNAc
Outline: as §1

[30] = molecular target: Gal(b1-3)[Fuc(a1-4)]GlcNAc(b1-6)GalNAc
Outline: as §1

[31] = molecular target: Gal(b1-3)[GlcNAc(b1-6)]GalNAc
Outline: as §1

[32] = molecular target: Gal(b1-3)[Neu5Ac(a2-6)]GalNAc
Outline: as §1

[33] = molecular target: Gal(b1-3)[Neu5Ac(a2-6)]GlcNAc(b1-4)Gal(b1-4)Glc
Outline: as §1

[34] = molecular target: Gal(b1-3)[Neu5Ac(a2-6)]GlcNAc(b1-6)Gal(b1-4)Glc
Outline: as §1

[35] = molecular target: Gal(b1-3)[Neu5Ac(b2-6)]GalNAc
Outline: as §1

Gal(b1-4)Gal = molecular target: Gal(b1-4)Gal
Outline: as §1

[36] = molecular target: Gal(b1-4)GalNAc(a1-3)[Fuc(a1-2)]Gal(b1-4)GlcNAc
Outline: as §1

[37] = molecular target: Gal(b1-4)GalNAc(b1-3)[Fuc(a1-2)]Gal(b1-4)GlcNAc
Outline: as §1

Gal(b1-4)Glc = molecular target: Gal(b1-4)Glc
Outline: as §1

Gal(b1-4)Glc6S = molecular target: Gal(b1-4)Glc6S
Outline: as §1

Gal(b1-4)GlcNAc = molecular target: Gal(b1-4)GlcNAc
Outline: as §1

B1: CRT-1 (Homo sapiens), P27797 (protein)
chain: MLLSVPLLLGLLGLAVAEPAVYFKEQFLDGDGWTSRWIESKHKSDFGKFVLSSGKFYGDEEKDKGLQTSQDARFYALSASFEPFSNKGQTLVVQFTVKHEQNIDCGGGYVKLFPNSLDQTDMHGDSEYNIMFGPDICGPGTKKVHVIFNYKGKNVLINKDIRCKDDEFTHLYTLIVRPDNTYEVKIDNSQVESGSLEDDWDFLPPKKIKDPDASKPEDWDERAKIDDPTDSKPEDWDKPEHIPDPDAKKPEDWDEEMDGEWEPPVIQNPEYKGEWKPRQIDNPDYKGTWIHPEIDNPEYSPDPSIYAYDNFGVLGLDLWQVKSGTIFDNFLITNDEAYAEEFGNETWGVTKAAEKQMKDKQDEEQRLKEEEEDKKRKEEEEAEDKEDDEDKDEDEEDEEDKEEDEEEDVPGQAKDEL
glycan array binding signal (z-score) (Gal(b1-3)GalNAc(b1-3)Gal): -0.571 | glycan array binding signal (z-score) [1]: -0.599 | glycan array binding signal (z-score) [2]: -0.123 | glycan array binding signal (z-score) [3]: -0.157 | glycan array binding signal (z-score) (Gal(b1-3)GlcNAc): -0.063 | glycan array binding signal (z-score) [4]: 0.211 | glycan array binding signal (z-score) [5]: -0.382 | glycan array binding signal (z-score) (Gal(b1-3)GlcNAc(b1-2)Man): -0.062 | glycan array binding signal (z-score) [6]: 0.523 | glycan array binding signal (z-score) [7]: 0.223 | glycan array binding signal (z-score) [8]: -0.882 | glycan array binding signal (z-score) [9]: 0.58 | glycan array binding signal (z-score) [10]: -0.577 | glycan array binding signal (z-score) [11]: -0.33 | glycan array binding signal (z-score) [12]: -0.275 | glycan array binding signal (z-score) [13]: -0.574 | glycan array binding signal (z-score) [14]: 1.48 | glycan array binding signal (z-score) [15]: 0.15 | glycan array binding signal (z-score) [16]: 0.174 | glycan array binding signal (z-score) [17]: -0.21 | glycan array binding signal (z-score) [18]: 0.691 | glycan array binding signal (z-score) [19]: -0.652 | glycan array binding signal (z-score) [20]: -0.021 | glycan array binding signal (z-score) [21]: 0.8 | glycan array binding signal (z-score) [22]: -1.19 | glycan array binding signal (z-score) (Gal(b1-3)GlcNAc6S): 0.611 | glycan array binding signal (z-score) [23]: -0.587 | glycan array binding signal (z-score) [24]: 0.701 | glycan array binding signal (z-score) [25]: 2.33 | glycan array binding signal (z-score) [26]: 0.345 | glycan array binding signal (z-score) [27]: -0.24 | glycan array binding signal (z-score) [28]: -0.382 | glycan array binding signal (z-score) [29]: -0.211 | glycan array binding signal (z-score) [30]: 0.703 | glycan array binding signal (z-score) [31]: -0.047 | glycan array binding signal (z-score) [32]: -0.598 | glycan array binding signal (z-score) [33]: -0.561 | glycan array binding signal (z-score) [34]: -0.579 | glycan array binding signal (z-score) [35]: -0.892 | glycan array binding signal (z-score) (Gal(b1-4)Gal): -0.253 | glycan array binding signal (z-score) [36]: -0.411 | glycan array binding signal (z-score) [37]: -0.82 | glycan array binding signal (z-score) (Gal(b1-4)Glc): -0.057 | glycan array binding signal (z-score) (Gal(b1-4)Glc6S): 0.043 | glycan array binding signal (z-score) (Gal(b1-4)GlcNAc): -0.282

From the supplement of paper PMC8728848
